According to PMC7819943, “Rice protein-binding microarrays: a tool to detect cis-acting elements near promoter regions in rice”:
The other results are listed elsewhere or left out.

Chains of the proteins cited; added tags and fusions are not shown.
UniProt Q0JBA9, entry or part of it: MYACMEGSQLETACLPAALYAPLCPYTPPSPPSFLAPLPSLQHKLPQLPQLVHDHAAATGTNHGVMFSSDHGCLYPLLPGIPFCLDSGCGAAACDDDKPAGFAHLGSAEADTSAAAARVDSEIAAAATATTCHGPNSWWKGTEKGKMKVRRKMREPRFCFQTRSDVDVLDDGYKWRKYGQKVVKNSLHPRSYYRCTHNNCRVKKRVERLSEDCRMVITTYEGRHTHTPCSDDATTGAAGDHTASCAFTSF

These sequences were tested against OsWRKY34 (Oryza sativa, UniProt Q0JBA9 1-250) (assay: protein-binding microarray (RPBM); PBS, 2% BSA, 51.3 ng/ul salmon testes DNA, 50 uM zinc acetate, 200 nM TF, 25 C, 1 h; high values mean tight binding). Settings: protein: recombinant; tags: N-terminal polyhistidine and DsRed monomer fusion (pET32a); label: CyDye5-dUTP incorporated in the synthesized complementary strand; 3' TTTTT single-stranded linker to array surface; dsDNA, one strand shown.
Method in brief: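 Binding signal is defined as the fluorescence intensity of each feature in arbitrary units, read on an Axon 4000B scanner. Transcription factors with N-terminal polyhistidine and DsRed fusions came from E. coli BL21-CodonPlus and were purified on Ni–NTA. They were incubated at 200 nM for 1 h at 25 °C on a custom Agilent array that had been made double-stranded with Cy5-dUTP, with 50 µM zinc acetate present, and the array was washed.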

Sequence	binding signal
ATAAGTTTAAGGACCGCCAATGCACTTTACTCTATTTTGACGGAGTCACCTAGTGCAG	9350 fluorescence intensity (a.u.)
TAAATTTTCCCCACTTTCTCTCCTCTCCTTTTCTTCTCTCCGGAGTCACCTAGTGCAG	10000 fluorescence intensity (a.u.)
ATTTTTTTTTTCGGTCGTCCAATTATTTCAGTGTACTTTTCGGAGTCACCTAGTGCAG	8310 fluorescence intensity (a.u.)
CTACACAGCAAAACATCATCGGCTTCCGCCCTTGCACACTCGGAGTCACCTAGTGCAG	10700 fluorescence intensity (a.u.)
ATCGTCTCTCCTTGTAGGCTAGCTGCTATACGAGAGCATGCGGAGTCACCTAGTGCAG	9980 fluorescence intensity (a.u.)
GCGCTGGCTCCCATGGATTCTCATATCGTCTTGCCCTCCGCGGAGTCACCTAGTGCAG	13200 fluorescence intensity (a.u.)
GCAAACTTCCACACCACCACGCCATCACCACCTCCACACCCGGAGTCACCTAGTGCAG	11700 fluorescence intensity (a.u.)
TGGGGCGGCAGGGTCTATTTTTGTAATTTTTTTGGCCGATCGGAGTCACCTAGTGCAG	9050 fluorescence intensity (a.u.)
AATTTCCTGGGCACCGCCTGCCTACACAACGACTGGTGACCGGAGTCACCTAGTGCAG	9050 fluorescence intensity (a.u.)
CCATCACCACCTCCCGATCCGCGCGCTTTCTCTCCCGCGCCGGAGTCACCTAGTGCAG	9090 fluorescence intensity (a.u.)
TCTTCCCTTGACTCCTCTTCTCCTCTCTTTCTCTCTCCTTCGGAGTCACCTAGTGCAG	11200 fluorescence intensity (a.u.)
ATCACTACTAGATCAGCACTCCATCAGCTAAGGTCTTTTTCGGAGTCACCTAGTGCAG	8860 fluorescence intensity (a.u.)
ACACATCATGAGTTTCTACAATTTTTTTTGTTCCCGCCCCCGGAGTCACCTAGTGCAG	8960 fluorescence intensity (a.u.)
CTATAATTCTTGCATATTTTCTGCCATTTTGTTCGAATTACGGAGTCACCTAGTGCAG	12600 fluorescence intensity (a.u.)
TGCTTGGCGTGAGTGCGTCACTTTTTTCGGTTCTTTTCCCCGGAGTCACCTAGTGCAG	8150 fluorescence intensity (a.u.)
CTCTCACTGTTTATCAAGCTTCAATTCTACATTTATTGTTCGGAGTCACCTAGTGCAG	10200 fluorescence intensity (a.u.)
AGTGCTGAACTATGAGTCTCACTATTTTGTTTCGATTTTTCGGAGTCACCTAGTGCAG	8220 fluorescence intensity (a.u.)
GATTGATGCTAGTGGTGCTTTGGTGTTGTGAAATGTAGCCCGGAGTCACCTAGTGCAG	9350 fluorescence intensity (a.u.)
GCTCCAACTAATACAGTTTCAGTTCAACCAGTCCAATGCACGGAGTCACCTAGTGCAG	9020 fluorescence intensity (a.u.)
AATCTTGTCTCTGCAGGCCGCCGGCGGGTGGGGAGGAGGCCGGAGTCACCTAGTGCAG	11200 fluorescence intensity (a.u.)
AAATGTGCTAAAAAGTCAACGGTGTCAAACATTTCGAAATCGGAGTCACCTAGTGCAG	16400 fluorescence intensity (a.u.)

Sequence	binding signal
GTGTTTTGTTTTTGGCAGTAGGTGCTTGCTATCTTTTCATCGGAGTCACCTAGTGCAG	10100 fluorescence intensity (a.u.)
CACACACACACCACCCACATTGAGCCAATTTCCTTCTCCTCGGAGTCACCTAGTGCAG	8660 fluorescence intensity (a.u.)
ATTTTAATTTTTTTCCGTTGACTGAAATTGAAGACAGTAACGGAGTCACCTAGTGCAG	8150 fluorescence intensity (a.u.)
AAAGCCGTCGTATTGTCATCCGCCGCTCGCTGACTCATTCCGGAGTCACCTAGTGCAG	8310 fluorescence intensity (a.u.)
GTCTTCCCGTGTCATCGTCGCCGTCATACACGCCAGCCCGCGGAGTCACCTAGTGCAG	9580 fluorescence intensity (a.u.)
TAGGCTTCAACTTTCAACCGAACTCACCTGCCCTAATTTGCGGAGTCACCTAGTGCAG	11100 fluorescence intensity (a.u.)
CTCTCACACATTCACAGCGCAGACCACACACGATCTCACTCGGAGTCACCTAGTGCAG	9800 fluorescence intensity (a.u.)
TCACTAGTTCTTCTCGTCGTCCTCGGGCGGGCAGAGGTTCCGGAGTCACCTAGTGCAG	8110 fluorescence intensity (a.u.)
CACTTCGTCGCTCACTCGCTTGTAGTCTCCAGCCACACAACGGAGTCACCTAGTGCAG	11900 fluorescence intensity (a.u.)
ATGCCTCCTGCTGCCTTATGATCTGGTTTGAATGGTTTTGCGGAGTCACCTAGTGCAG	8200 fluorescence intensity (a.u.)
TCATCTCGTCGCCATTGACAGACTAGCGCCGGCCTGTCCACGGAGTCACCTAGTGCAG	8940 fluorescence intensity (a.u.)
TTCACCCCTTGATCCAACGGCTTTTAATTGGTTTTACAGTCGGAGTCACCTAGTGCAG	9490 fluorescence intensity (a.u.)
AACAATAACGTTTCAATATTTCTTTCGTTTATACCATTAACGGAGTCACCTAGTGCAG	11400 fluorescence intensity (a.u.)
ACTTATTTTCTCACTTTGCTGCAACGGTTTTTATGGCACGCGGAGTCACCTAGTGCAG	8580 fluorescence intensity (a.u.)
TTAGCACATGTTTGACCGTTCGTCTTATTCAAAATTTTTTCGGAGTCACCTAGTGCAG	12600 fluorescence intensity (a.u.)
CAATCTATTATTCAACATTTGGGGACACAAATTATGTCGTCGGAGTCACCTAGTGCAG	8080 fluorescence intensity (a.u.)
ATGGCTTCCTTGTATATCTTGGTCTTCTTTCTGTATTCGTCGGAGTCACCTAGTGCAG	11600 fluorescence intensity (a.u.)
AATTTTGCCGCCAGCCCATTCCACTACCTAACCATCTCTTCGGAGTCACCTAGTGCAG	8400 fluorescence intensity (a.u.)
ATATTCTTTTTGGTTTGGATGGTTTTTTTTTTATAGATCTCGGAGTCACCTAGTGCAG	12600 fluorescence intensity (a.u.)
AAATCCCACGCACAAGTCGTCGCGGGCGTTCTATACTTCTCGGAGTCACCTAGTGCAG	8700 fluorescence intensity (a.u.)
TCCATCCAGGGAAAGGGTAGGGGAAGGTGGCAATGAGGATCGGAGTCACCTAGTGCAG	9820 fluorescence intensity (a.u.)

Looked up above:
CAATCTATTATTCAACATTTGGGGACACAAATTATGTCGTCGGAGTCACCTAGTGCAG – binding signal: 8080 fluorescence intensity (a.u.)
TCTTCCCTTGACTCCTCTTCTCCTCTCTTTCTCTCTCCTTCGGAGTCACCTAGTGCAG – binding signal: 11200 fluorescence intensity (a.u.)
